In patent US10316077B2, “Cell-penetrating ATF5 polypeptides and uses thereof” (Sapience Therapeutics, Inc., priority 2017, dated 2019):
Entries after “also recorded” stand apart in the source; their conditions may differ. Not every detail of the peptide structures is certain; ends, links or a residue may be inferred. Marks after values point to notes of the source that are not given here. Ends that are not written are not given here.

Key:
U251 cells = test: Cellular and nuclear penetration, immunofluorescence and scanning cytometry; type: cell-based
U87 cells = test: Apo-ONE caspase 3/7 activation assay in U87 glioblastoma cells; type: cell-based; details: for % Caspase Activation, ST-3 alone: % of positive control (staurosporine 10 μM), U87
Description: Activation of caspase enzymes occurs in the early stages of apoptosis. In this Example, we investigated the effect on caspase activation of ST-3 in combination with the Bcl-2 inhibitor ABT-263 (Navitoclax). U87 cells were prepared as described in Example 2 for T98G cells. Lyophilized ST-3 was freshly reconstituted in Tris Buffer at a concentration of 5 mg/mL, and adjusted to a working concentration of 200 μM. ST-3 was added to cells in 100 μL Tris Buffer at a final concentration range of 0-20 μM. […] Plates were incubated at ambient temperature in the dark for 1.5-2 hours. Fluorescence was recorded by Eppendorf PlateReader AF2200 at Ex. 485 nm/Em. 527 nm.

[1] = system: U87 MG-Luc glioblastoma cells; test: U87 subcutaneous tumor model; type: in vivo, Nu/Nu mice; details: 50 mg/kg IP
U251 xenografts = test: Subcutaneous U251 xenograft, TUNEL staining for apoptosis; type: in vivo, Nu/Nu mice; details: 25 mg/kg Q3D; for TUNEL+ Foci <1 mm / TUNEL+ Foci >1 mm: tumors excised 24 hours after final treatment
[2] = system: adult mesenchymal GBM tumors; test: Patient-derived mesenchymal GBM tumor xenograft model; type: in vivo, mice; details: 25 mg/kg IT once daily for 8 days, FIG. 6B
[3] = 100 μM, 1-hour incubation, U251 cells

RQIKIWFQNRRMKWKKLEGECQGLEARNRELKERAESV [ST-3]
cell and nuclear entry (U251 cells; 100 μM for 1 hour, U251 GBM cells): rapidly enters U251 glioblastoma multiforme (GBM) cells and enters the nucleus | cytoplasmic membranes penetrated (U251 cells; [3]): 100% | nuclear membranes penetrated (U251 cells; [3]): about 84% | % Caspase Activation, ST-3 alone (U87 cells; ST-3 5 μM): 31.48% | % Caspase Activation, ST-3 alone (U87 cells; ST-3 10 μM): 28.58% | % Caspase Activation, ST-3 alone (U87 cells; ST-3 20 μM): 39.11% | caspase 3/7 activity, % of maximal response, ST-3 alone (U87 cells; ST-3 alone over the tested concentrations, maximal response = staurosporine): 28.5-38.9% | duration of repression of tumor growth [1]: approximately 3 weeks | effect on tumor growth ([1]; (QDx5, 2off)x3 then (Q3Dx2, 3off)x3, FIG. 6A): modest repression of tumor growth; also recorded: represses tumor growth | TUNEL+ Foci <1 mm (U251 xenografts; IP): 6 | TUNEL+ Foci >1 mm (U251 xenografts; IP): 0.5 | size of TUNEL+ foci >1 mm (footnote) (U251 xenografts; IT): *Foci measured 3-4 mm. | TUNEL+ Foci <1 mm (U251 xenografts; IT): 1 | TUNEL+ Foci >1 mm (U251 xenografts; IT): 2.5* | induction of apoptosis in tumor xenograft (U251 xenografts; both systemic (IP) and local (IT) administration): induced apoptosis | effect on tumor growth [2]: delayed tumor growth better than ST-2; also recorded: delays tumor growth
